Results on one substance are retold here after publication PMC11574294.

Sequences of proteins named here, by UniProt entry; tags and fusion partners are left off.
UniProt Q9P2E3: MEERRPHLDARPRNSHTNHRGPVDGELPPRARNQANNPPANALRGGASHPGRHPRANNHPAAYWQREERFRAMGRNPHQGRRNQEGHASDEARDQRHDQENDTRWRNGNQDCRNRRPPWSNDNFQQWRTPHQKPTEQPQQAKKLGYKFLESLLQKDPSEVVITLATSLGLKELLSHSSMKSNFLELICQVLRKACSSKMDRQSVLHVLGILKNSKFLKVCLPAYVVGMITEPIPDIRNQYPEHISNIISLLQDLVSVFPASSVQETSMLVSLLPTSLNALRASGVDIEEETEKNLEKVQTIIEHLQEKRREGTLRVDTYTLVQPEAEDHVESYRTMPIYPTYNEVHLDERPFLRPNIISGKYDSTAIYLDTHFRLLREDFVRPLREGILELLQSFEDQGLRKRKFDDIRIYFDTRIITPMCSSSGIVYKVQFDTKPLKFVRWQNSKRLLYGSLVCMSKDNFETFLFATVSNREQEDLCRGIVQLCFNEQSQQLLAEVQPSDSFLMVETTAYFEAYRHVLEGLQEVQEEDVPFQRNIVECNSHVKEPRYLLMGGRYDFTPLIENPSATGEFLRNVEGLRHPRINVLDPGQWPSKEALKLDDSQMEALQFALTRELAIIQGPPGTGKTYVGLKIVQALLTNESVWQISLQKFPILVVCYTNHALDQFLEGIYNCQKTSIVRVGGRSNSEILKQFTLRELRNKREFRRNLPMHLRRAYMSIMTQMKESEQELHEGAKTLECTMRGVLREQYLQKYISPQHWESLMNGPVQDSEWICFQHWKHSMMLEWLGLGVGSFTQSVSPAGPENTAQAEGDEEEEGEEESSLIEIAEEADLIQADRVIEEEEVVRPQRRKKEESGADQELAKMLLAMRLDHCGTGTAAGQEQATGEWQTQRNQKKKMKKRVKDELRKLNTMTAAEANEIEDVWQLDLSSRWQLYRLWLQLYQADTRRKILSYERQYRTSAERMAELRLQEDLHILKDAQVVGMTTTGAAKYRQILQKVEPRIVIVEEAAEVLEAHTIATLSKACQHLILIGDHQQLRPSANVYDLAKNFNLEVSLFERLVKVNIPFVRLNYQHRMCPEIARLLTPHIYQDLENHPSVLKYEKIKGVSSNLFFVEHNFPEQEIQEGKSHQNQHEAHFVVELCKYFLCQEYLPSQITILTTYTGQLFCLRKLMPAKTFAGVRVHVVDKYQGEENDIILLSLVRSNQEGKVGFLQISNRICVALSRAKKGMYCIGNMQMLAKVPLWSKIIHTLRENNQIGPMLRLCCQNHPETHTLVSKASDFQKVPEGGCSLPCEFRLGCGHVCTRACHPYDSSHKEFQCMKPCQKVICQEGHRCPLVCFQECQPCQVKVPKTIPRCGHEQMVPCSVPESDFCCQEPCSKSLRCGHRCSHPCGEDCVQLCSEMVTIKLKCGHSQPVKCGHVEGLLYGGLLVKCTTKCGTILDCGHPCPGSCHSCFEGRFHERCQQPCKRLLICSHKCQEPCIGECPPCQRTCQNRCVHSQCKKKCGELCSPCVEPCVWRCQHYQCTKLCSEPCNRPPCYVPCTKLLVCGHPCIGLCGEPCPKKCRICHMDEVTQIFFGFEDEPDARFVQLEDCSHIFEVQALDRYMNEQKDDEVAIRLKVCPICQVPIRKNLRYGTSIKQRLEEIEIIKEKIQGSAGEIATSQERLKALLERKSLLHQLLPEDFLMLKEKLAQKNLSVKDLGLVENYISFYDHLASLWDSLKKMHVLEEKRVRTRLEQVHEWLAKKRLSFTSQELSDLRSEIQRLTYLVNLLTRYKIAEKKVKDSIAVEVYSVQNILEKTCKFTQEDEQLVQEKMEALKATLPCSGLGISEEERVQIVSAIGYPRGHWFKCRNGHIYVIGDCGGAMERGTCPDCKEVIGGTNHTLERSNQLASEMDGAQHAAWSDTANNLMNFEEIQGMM
UniProt Q96P20: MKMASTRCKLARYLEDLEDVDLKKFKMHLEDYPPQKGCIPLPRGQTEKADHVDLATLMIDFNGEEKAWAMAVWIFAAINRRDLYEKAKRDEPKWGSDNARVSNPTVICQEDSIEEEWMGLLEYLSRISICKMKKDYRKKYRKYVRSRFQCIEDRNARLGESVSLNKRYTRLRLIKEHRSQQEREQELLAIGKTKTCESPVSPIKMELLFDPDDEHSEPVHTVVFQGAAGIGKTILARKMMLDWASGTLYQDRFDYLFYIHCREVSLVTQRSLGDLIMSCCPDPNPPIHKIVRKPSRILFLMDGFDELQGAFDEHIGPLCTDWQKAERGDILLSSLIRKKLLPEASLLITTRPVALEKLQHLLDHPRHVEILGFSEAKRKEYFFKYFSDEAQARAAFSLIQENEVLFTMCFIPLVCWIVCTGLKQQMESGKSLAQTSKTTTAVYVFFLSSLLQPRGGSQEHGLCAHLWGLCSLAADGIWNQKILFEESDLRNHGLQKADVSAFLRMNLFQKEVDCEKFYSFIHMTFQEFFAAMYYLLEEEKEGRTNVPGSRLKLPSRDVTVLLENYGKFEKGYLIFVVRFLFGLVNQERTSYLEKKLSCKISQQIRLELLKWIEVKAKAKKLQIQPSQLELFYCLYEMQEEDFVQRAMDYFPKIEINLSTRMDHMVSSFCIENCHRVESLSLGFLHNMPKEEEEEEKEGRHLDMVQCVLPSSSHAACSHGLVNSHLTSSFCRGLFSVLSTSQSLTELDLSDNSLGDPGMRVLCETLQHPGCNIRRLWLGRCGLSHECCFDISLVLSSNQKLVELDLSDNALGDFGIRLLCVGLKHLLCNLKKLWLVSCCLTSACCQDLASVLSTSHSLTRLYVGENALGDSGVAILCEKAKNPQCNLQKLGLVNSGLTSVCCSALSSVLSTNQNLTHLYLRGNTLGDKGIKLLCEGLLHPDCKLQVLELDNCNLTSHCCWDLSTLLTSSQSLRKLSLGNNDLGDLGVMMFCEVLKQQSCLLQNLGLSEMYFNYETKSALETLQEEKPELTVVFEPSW

No constants are given. Whether binding was seen depends on the method and setting. In cells and extracts the contact can be indirect. Here binding means that the protein was enriched with, or labelled near, the bait; the list need not be complete.

The target in the test is 3xFLAG-miniTurbo-mEGFP-ZNFX1, stably expressed in HeLa cells (UniProt Q9P2E3). Briefly: proximity labelling; HeLa cells stably expressing miniTurbo-ZNFX1 and mCherry-NLRP3; 200 uM biotin 8 h; RIPA lysate; streptavidin magnetic beads; immunoblot. For orientation: Immunoblotting shows a protein as a band on a membrane.

With “HA-mCherry-NLRP3, stably expressed in HeLa cells (from UniProt Q96P20 1-1036)”, the binding entry is “binds”.
